According to PubChem BioAssay AID1347076 (National Center for Advancing Translational Sciences (NCATS), 2019):
About 13,000 (3.2%) of roughly 400,000 compounds were called active. The inconclusive results got no clear call from the source; some entries with a clear call stand among them for comparison. Calls follow the shape of the dose curve; as a rule, active = well fitted cell-killing curve with a large enough effect; inconclusive = small, poorly fitted or top-dose-only effect, or effect the other way; inactive = flat fitted curve, though single readings scatter. Where the call is inconclusive, the potency comes from a doubtful curve fit.

Assay: qHTS assay for MDR1-selective chemotherapeutics: Primary screen using the drug-selected MDR subline cells KB-V1; also: nearly all actives have a fitted effect of over 60% in size
Settings: KB-V1 MDR cells viability, CellTiter-Glo, 72 h; activity change, negative = cytotoxicity: at 46.1 µM (top of the series)
Method in brief: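 Cells of the MDR subline KB-V1 are plated, dosed with compound at multiple concentrations, and incubated 72 h at 37 degrees C; CellTiter-Glo is then added and luminescence read after 10 min.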
% is scaled to controls: 0 for no effect and ±100 for the full control effect; potency is read from the fitted curve at half-maximal effect.

| Structure (SMILES) | Potency | activity change, negative = cytotoxicity |
| --- | --- | --- |
| COc1cc(C2c3c(-c4c(C)cc(C)cc4O)n[nH]c3C(=O)N2CCO)cc(OC)c1OC (stereo not drawn) | inconclusive: 23.1 µM [rising, partial curve, poor fit] |  |
| CCCCn1c(N)c(N(CC)C(=O)c2ccc(-c3ccc(Cl)cc3)o2)c(=O)[nH]c1=O | inconclusive: 20.6 µM [rising, single point] |  |
| COc1ccc(CN(Cc2nc3ccccc3c(=O)[nH]2)C(=O)c2ccco2)cc1 | inconclusive: 8.2 µM [cytotoxic, partial curve] |  |
| COc1ccc(OC)c(/C=C/C(=O)OCC(=O)c2c(N)n(C)c(=O)n(C)c2=O)c1 | inconclusive: 0.58 µM [rising, partial curve, poor fit] |  |
| Cc1cccc(C)c1NC(=O)C1c2ccccc2OCC(=O)N1C1CC1 (stereo not drawn) |  | inactive: -19% |
| COc1ccc(S(=O)(=O)N2CC3C4C=CC(C4)C3C2)cc1 (stereo not drawn) |  | inactive: -7.72% |
| CCn1nc(C)c(NS(=O)(=O)c2ccccc2)c1C | inconclusive: 13 µM [cytotoxic, partial curve, poor fit] |  |
| CCc1ccc(C(=O)NNc2ccc(Cl)cc2)cc1 |  | inactive: 1.11% |
| Cc1ccc(NC(=O)CCC(=O)N/N=C/c2ccccc2O)cc1 |  | inactive: 15% |
| O=C(COc1ccccc1)Nc1cccc(-c2ccc(N3CCOCC3)nn2)c1 | inconclusive: 13 µM [cytotoxic, partial curve] |  |
| CSc1nc(=S)n(Cc2ccccc2)c(C)c1C(C)=O | inconclusive: 25.9 µM [cytotoxic, partial curve, poor fit] |  |
| CC1(Cc2ccc(OC(F)(F)F)cc2)C(=O)Nc2ccc(S(=O)(=O)NC3CCCCC3)cc21 (stereo not drawn) | inconclusive: 29.1 µM [cytotoxic, single point] |  |
| Cc1cc(-n2c(C)nc3ccccc3c2=O)ccc1NC(=O)c1ccc(C)c([N+](=O)[O-])c1 |  | inactive: -5.78% |
| C[C@@H]1C[C@H]2[C@@H]3CCC4=CC(=O)C=C[C@]4(C)[C@@]3(F)C(O)C[C@]2(C)[C@@]1(O)C(=O)CO (stereo partly drawn) |  | inactive: 0% |
| Cc1ccc(NC(=O)C2CCN(S(=O)(=O)c3ccccc3)CC2)cc1 | inconclusive: 16.4 µM [cytotoxic, single point] |  |
| COc1ccc(/C(C)=N/NC(=O)Cn2nc([N+](=O)[O-])cc2C)cc1 |  | inactive: -5.69% |
| CSc1nnc(SCC2=NNC(=O)SC2)s1 | inconclusive: 29.1 µM [cytotoxic, single point] |  |
| O=C(c1ccc2c(c1)N(Cc1ccccc1)C(=O)CS2)N1CCOCC1 | active: 14.6 µM |  |
| Cc1ccc(S(=O)(=O)N(CCC(=O)NCC(c2ccccc2)N(C)C)c2ccccc2)cc1 (stereo not drawn) | active: 10.3 µM |  |
| O=S(=O)(c1ccc2c(c1)OCCO2)N1CCN(Cc2ccc3c(c2)OCO3)CC1 | inconclusive: 29.1 µM [cytotoxic, partial curve, poor fit] |  |
| COC(=O)c1cc(C)nc2c1C(=O)C(=O)C=C2N1CCOCC1 | inconclusive: 29.1 µM [cytotoxic, single point] |  |
| CCCN1C(=O)c2[nH]nc(-c3ccccc3O)c2C1c1cccc(OCc2ccccc2)c1 (stereo not drawn) | inconclusive: 18.4 µM [cytotoxic, single point] |  |

| Structure (SMILES) | Potency | activity change, negative = cytotoxicity |
| --- | --- | --- |
| O=S1(=O)CCO[C@H]2CCCC[C@@H]2N1Cc1cccc(F)c1 | inconclusive: 29.1 µM [cytotoxic, partial curve, poor fit] |  |
| CN(CC(=O)Nc1ccccc1Br)CC(=O)NC(c1ccccc1)c1ccccc1 | inconclusive: 18.4 µM [cytotoxic, partial curve] |  |
| CCN(CC)S(=O)(=O)c1cc(NS(=O)(=O)c2cccc(Cl)c2)ccc1C | inconclusive: 14.6 µM [cytotoxic, partial curve] |  |
| O=C(OCC(=O)c1c[nH]c2ccccc12)c1cc2ccccc2cc1O | inconclusive: 23.1 µM [cytotoxic, single point] |  |
| COCCCN1C(=O)c2ccccc2C1C(=O)NC1CCCCCC1 (stereo not drawn) | inconclusive: 16.4 µM [cytotoxic, single point] |  |
| Cc1ccc(CSc2ccc(-c3cccs3)nn2)cc1 | inconclusive: 20.6 µM [cytotoxic, single point] |  |
| CC1(C(=O)NS(=O)(=O)c2ccc(F)cc2F)CCN1C(=O)Cc1cccc2ccccc12 (stereo not drawn) |  | inactive: 2.99% |
| COc1cccc(N2C(=O)C3CCCN3C2=S)c1 (stereo not drawn) | inconclusive: 20.6 µM [cytotoxic, partial curve, poor fit] |  |
| CC(C)(C)NC(=O)c1cnn(-c2ccccc2)c1C1CCN(C(=O)OC(C)(C)C)CC1 |  | inactive: 0.332% |
| Cc1ccc(OCC(=O)N/N=C/c2cn[nH]c2-c2ccc(Cl)c(Cl)c2)cc1 | inconclusive: 32.6 µM [cytotoxic, single point] |  |
| Cc1ccc(NC(=O)COC(=O)CNC(=O)c2ccc3ccccc3c2)c([N+](=O)[O-])c1 | inconclusive: 29.1 µM [cytotoxic, single point] |  |
| CCn1nnnc1SCC(=O)c1cc(OC)ccc1OC | inconclusive: 16.4 µM [cytotoxic, single point] |  |
| CCN1CCN(c2nc(S(=O)(=O)c3ccc(C)cc3)c(Cl)s2)CC1 | inconclusive: 29.1 µM [cytotoxic, single point] |  |
| CN(C)c1ccc(CNC(=O)C2(C)Cc3c(-c4ccc(N(C)C)cc4)ccnc3O2)cc1 (stereo not drawn) |  | inactive: -3.66% |
| CCCNC(=S)NC1CC2CCC(C1)N2Cc1ccccc1 (stereo not drawn) |  | inactive: 23.3% |
| CC(C)CCN(C(=O)c1ccc(Br)cc1)c1c(N)n(Cc2ccccc2)c(=O)[nH]c1=O | inconclusive: 18.4 µM [rising, single point] |  |
| COc1ccc(S(=O)(=O)n2cnc3cc(C)c(C)cc32)cc1C | inconclusive: 20.6 µM [cytotoxic, partial curve, poor fit] |  |
| CCC(CC)C(=O)OCC(=O)Nc1cc(OC)c([N+](=O)[O-])cc1C | inconclusive: 20.6 µM [cytotoxic, single point] |  |
| O=c1oc2ccccc2nc1/C=C(O)/C=C\c1ccccc1 |  | inactive: 4.05% |
| CCC(CC)NC(=O)c1ccccc1Oc1ccccc1 | inconclusive: 13 µM [cytotoxic, single point] |  |
| O=C1[C@H]2[C@@H](/C=C/c3ccccc3)N3C(=O)CN(CCO)C(=O)[C@@]3(Cc3ccccc3)[C@H]2C(=O)N1c1ccccc1 | inconclusive: 32.6 µM [rising, single point] |  |

Given as labelled records: entries from further up.
Cc1ccc(CSc2ccc(-c3cccs3)nn2)cc1
  Potency: inconclusive: 20.6 µM [cytotoxic, single point]
CC1(C(=O)NS(=O)(=O)c2ccc(F)cc2F)CCN1C(=O)Cc1cccc2ccccc12 (stereo not drawn)
  activity change, negative = cytotoxicity: inactive: 2.99%
